Measured values: publication doi:10.1101/2020.12.29.424673
No constants are given. Whether binding was seen depends on the method and setting. In cells and extracts the contact can be indirect. Some results given as binding are weak or reduced against the parent protein; the word gives no strength.

Amino acid sequences for entries named in this document (tags omitted). A change or cut given only in a name is not applied to a line headed by its entry.
UniProt P61586: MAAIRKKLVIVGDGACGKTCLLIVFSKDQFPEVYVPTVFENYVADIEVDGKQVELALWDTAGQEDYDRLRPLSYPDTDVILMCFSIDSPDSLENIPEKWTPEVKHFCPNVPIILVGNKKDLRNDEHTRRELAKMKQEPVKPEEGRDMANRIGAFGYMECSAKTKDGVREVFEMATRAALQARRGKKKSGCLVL

Molecular target: GST-RhoA G17A (UniProt P61586)
Experiment: pull-down

- binding: binds
B1: GEF-H1 (RhoA guanine nucleotide exchange factor), mouse, endogenous (protein, UniProt Q60875 1-985)
chain: MSRIESLTRARIDRSKEQATKTREKEKMKEAKDARYTNGHLFTTISVSGMTMCYACNKSITAKEALICPTCNVTIHNRCKDTLANCTKVKQKQQKAALLRNNTALQSVSLRSKTTTRERPTSAIYPSDSFRQSLLGSRRGLSSLSLAKSVSTTNIAGHFNDESPLGLRQILSQSTDSLNMRNRTLSVESLIDEGVEVFYNELMSDFEMDEKDFEADSWSLAVDSSFLQQHKKEVMKKQDVIYELIQTELHHVRTLKIMTRLFRTGMLEELQMEPEVVQGLFPCVDELSDIHTRFLNQLLERRRQALCPGSTRNFVIHRLGDLLISQFSGSNAEQMRKTYSEFCSRHTKALKLYKELYARDKRFQQFIRKMTRSAVLKRHGVQECILLVTQRITKYPVLINRILQNSHGVEEEYQDLASALGLVKELLSNVDQDVHELEKEARLQEIYNRMDPRAQTPVPGKGPFGRDELLRRKLIHEGCLLWKTATGRFKDVLLLLMTDVLVFLQEKDQKYIFTSLDKPSVVSLQNLIVRDIANQAKGMFLISSGPPEMYEVHAASRDDRTTWIRVIQQSVRLCPSREDFPLIETEDKAYLRRIKTKLQQKNQALVELLQKNVELFAEMVHFQALKAGFVGMPPPALPRGLFRLESFESLRGERLLKDALREVEGLKDLLLGPCVDLPMTSREPALPLDSDSGSCPGVTANGEARTFNGSIELCRADSDSSQKDRNGNQLRSPQEEVLQPLINLYGLLHGLQAVVVQQERLMEALFPEGPERWEKLSRANSRDGEAGRAAVASVTPEKQATELALLQRQHTLLQEELRRCQRLGEERATEAGSLEARLRESEQARALLEREAEEIRRQLAALGQNEPLPAEAPWARRPLDPRRRSLPAGDALYLSFNPPQPSRGHDRLDLPVTVRSLHRPFDDREAQELGSPEDRLQDSSDPDTGSEEEVSSRLSPPHSPRDFTRMQDIPEETESRDGEPTASES
